Reference: paper PMC6667500
No constants are given. Whether binding was seen depends on the method and setting. In cells and extracts the contact can be indirect. Some results given as binding are weak or reduced against the parent protein; the word gives no strength.

Protein sequences, listed by entry. Tags and fused reporters are not part of them.
UniProt Q9H583: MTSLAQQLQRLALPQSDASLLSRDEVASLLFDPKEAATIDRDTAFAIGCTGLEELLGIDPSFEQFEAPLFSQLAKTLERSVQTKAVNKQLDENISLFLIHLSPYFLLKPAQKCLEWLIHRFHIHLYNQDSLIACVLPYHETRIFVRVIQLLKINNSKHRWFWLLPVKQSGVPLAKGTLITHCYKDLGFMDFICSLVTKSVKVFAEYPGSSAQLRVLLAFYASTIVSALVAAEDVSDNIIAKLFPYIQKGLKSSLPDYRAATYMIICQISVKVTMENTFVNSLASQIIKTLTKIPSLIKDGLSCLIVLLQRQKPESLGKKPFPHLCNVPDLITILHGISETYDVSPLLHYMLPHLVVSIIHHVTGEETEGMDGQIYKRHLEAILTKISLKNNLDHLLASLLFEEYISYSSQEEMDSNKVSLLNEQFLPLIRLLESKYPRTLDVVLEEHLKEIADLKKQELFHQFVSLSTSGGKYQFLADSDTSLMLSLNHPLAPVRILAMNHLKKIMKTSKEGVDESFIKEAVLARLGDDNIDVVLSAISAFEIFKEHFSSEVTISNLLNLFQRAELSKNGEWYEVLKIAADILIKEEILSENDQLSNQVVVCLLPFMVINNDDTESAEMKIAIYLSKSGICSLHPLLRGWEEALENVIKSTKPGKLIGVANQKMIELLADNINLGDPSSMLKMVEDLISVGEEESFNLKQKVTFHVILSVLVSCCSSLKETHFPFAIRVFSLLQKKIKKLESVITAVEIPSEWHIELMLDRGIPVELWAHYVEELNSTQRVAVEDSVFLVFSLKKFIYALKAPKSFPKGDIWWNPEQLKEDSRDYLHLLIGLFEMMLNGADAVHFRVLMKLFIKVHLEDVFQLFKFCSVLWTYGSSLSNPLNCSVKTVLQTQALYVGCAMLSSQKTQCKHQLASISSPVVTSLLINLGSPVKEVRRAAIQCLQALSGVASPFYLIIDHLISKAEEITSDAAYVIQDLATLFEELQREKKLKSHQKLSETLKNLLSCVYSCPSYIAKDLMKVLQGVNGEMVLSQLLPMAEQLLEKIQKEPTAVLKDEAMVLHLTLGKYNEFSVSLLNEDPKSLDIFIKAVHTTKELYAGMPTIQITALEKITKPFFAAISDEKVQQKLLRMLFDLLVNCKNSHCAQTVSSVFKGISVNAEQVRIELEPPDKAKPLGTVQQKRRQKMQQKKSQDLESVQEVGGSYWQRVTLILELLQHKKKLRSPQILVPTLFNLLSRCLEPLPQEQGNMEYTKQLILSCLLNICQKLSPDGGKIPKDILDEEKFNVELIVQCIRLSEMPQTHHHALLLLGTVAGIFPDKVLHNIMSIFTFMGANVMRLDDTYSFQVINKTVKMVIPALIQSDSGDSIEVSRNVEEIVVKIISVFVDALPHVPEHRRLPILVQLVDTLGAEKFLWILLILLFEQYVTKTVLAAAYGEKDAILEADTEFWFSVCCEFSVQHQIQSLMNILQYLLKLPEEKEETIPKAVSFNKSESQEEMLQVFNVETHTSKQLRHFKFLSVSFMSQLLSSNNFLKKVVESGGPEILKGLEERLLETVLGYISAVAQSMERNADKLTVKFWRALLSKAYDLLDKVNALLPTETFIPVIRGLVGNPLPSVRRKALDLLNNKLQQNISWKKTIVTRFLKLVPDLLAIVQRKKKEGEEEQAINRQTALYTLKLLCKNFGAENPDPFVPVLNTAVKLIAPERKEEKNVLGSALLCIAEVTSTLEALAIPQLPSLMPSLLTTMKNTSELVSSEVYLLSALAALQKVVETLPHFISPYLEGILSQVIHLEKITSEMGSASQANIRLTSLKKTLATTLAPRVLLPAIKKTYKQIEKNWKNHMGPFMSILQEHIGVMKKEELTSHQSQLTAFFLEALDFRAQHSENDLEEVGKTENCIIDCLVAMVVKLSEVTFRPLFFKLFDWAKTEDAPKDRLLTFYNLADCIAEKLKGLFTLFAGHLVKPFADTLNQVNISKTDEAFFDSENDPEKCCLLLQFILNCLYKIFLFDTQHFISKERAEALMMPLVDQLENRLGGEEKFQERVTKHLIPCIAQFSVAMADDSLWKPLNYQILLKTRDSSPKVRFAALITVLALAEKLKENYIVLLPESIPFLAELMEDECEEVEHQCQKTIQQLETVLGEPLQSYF

T1: endogenous AATF (human (endogenous in HEK 293T)) (UniProt Q9NY61)
T1 sequence: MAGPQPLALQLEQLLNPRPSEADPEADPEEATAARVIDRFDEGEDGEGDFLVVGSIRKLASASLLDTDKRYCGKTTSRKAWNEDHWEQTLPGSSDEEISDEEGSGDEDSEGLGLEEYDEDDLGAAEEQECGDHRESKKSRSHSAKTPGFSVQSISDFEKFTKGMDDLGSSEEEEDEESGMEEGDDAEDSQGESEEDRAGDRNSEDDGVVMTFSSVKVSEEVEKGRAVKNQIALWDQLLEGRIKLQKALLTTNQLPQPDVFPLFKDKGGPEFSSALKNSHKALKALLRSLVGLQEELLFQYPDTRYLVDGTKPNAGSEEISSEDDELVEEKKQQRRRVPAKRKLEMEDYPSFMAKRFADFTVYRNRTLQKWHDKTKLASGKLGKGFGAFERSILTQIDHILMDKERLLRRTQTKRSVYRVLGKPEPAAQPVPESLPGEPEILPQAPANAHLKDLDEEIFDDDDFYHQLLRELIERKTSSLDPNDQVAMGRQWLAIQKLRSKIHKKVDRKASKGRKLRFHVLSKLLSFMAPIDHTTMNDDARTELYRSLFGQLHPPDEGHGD


Target: T1, endogenous AATF (human (endogenous in HEK 293T))
Assay: co-IP; endogenous AATF precipitated with anti-AATF antibody on Protein G Dynabeads from HEK 293T lysate (modified RIPA buffer, Turbo DNase treated), overnight; rabbit IgG as negative control; western blot; 3 biological replicates

binding | Molecule
binds | ribosome biogenesis factor HEAT Repeat-Containing Protein 1 (HEATR1) (from UniProt Q9H583 1-2144)
binds | rRNA 2'-O-methyltransferase fibrillarin (FBL) (protein, UniProt P22087 1-321) MKPGFSPRGGGFGGRGGFGDRGGRGGRGGFGGGRGRGGGFRGRGRGGGGGGGGGGGGGRGGGGFHSGGNRGRGRGGKRGNQSGKNVMVEPHRHEGVFICRGKEDALVTKNLVPGESVYGEKRVSISEGDDKIEYRAWNPFRSKLAAAILGGVDQIHIKPGAKVLYLGAASGTTVSHVSDIVGPDGLVYAVEFSHRSGRDLINLAKKRTNIIPVIEDARHPHKYRMLIAMVDVIFADVAQPDQTRIVALNAHTFLRNGGHFVISIKANCIDSTASAEAVFASEVKKMQQENMKPQEQLTLEPYERDHAVVVGVYRPPPKVKN
binds | rRNA methyltransferase Nucleolar Protein 2 Homolog (NOP2) (protein, UniProt P46087 1-812) MGRKLDPTKEKRGPGRKARKQKGAETELVRFLPAVSDENSKRLSSRARKRAAKRRLGSVEAPKTNKSPEAKPLPGKLPKGISAGAVQTAGKKGPQSLFNAPRGKKRPAPGSDEEEEEEDSEEDGMVNHGDLWGSEDDADTVDDYGADSNSEDEEEGEALLPIERAARKQKAREAAAGIQWSEEETEDEEEEKEVTPESGPPKVEEADGGLQINVDEEPFVLPPAGEMEQDAQAPDLQRVHKRIQDIVGILRDFGAQREEGRSRSEYLNRLKKDLAIYYSYGDFLLGKLMDLFPLSELVEFLEANEVPRPVTLRTNTLKTRRRDLAQALINRGVNLDPLGKWSKTGLVVYDSSVPIGATPEYLAGHYMLQGASSMLPVMALAPQEHERILDMCCAPGGKTSYMAQLMKNTGVILANDANAERLKSVVGNLHRLGVTNTIISHYDGRQFPKVVGGFDRVLLDAPCSGTGVISKDPAVKTNKDEKDILRCAHLQKELLLSAIDSVNATSKTGGYLVYCTCSITVEENEWVVDYALKKRNVRLVPTGLDFGQEGFTRFRERRFHPSLRSTRRFYPHTHNMDGFFIAKFKKFSNSIPQSQTGNSETATPTNVDLPQVIPKSENSSQPAKKAKGAAKTKQQLQKQQHPKKASFQKLNGISKGADSELSTVPSVTKTQASSSFQDSSQPAGKAEGIREPKVTGKLKQRSPKLQSSKKVAFLRQNAPPKGTDTQTPAVLSPSKTQATLKPKDHHQPLGRAKGVEKQQLPEQPFEKAAFQKQNDTPKGPQPPTVSPIRSSRPPPAKRKKSQSRGNSQLLLS
